# PubChem BioAssay AID588590 (National Center for Advancing Translational Sciences (NCATS), 2011)
# Protein sequences, listed by entry. Tags and fused reporters are not part of them. Lines headed by an entry give the natural chain unless they say otherwise; changes in a name come on top.
# UniProt Q9UNA4: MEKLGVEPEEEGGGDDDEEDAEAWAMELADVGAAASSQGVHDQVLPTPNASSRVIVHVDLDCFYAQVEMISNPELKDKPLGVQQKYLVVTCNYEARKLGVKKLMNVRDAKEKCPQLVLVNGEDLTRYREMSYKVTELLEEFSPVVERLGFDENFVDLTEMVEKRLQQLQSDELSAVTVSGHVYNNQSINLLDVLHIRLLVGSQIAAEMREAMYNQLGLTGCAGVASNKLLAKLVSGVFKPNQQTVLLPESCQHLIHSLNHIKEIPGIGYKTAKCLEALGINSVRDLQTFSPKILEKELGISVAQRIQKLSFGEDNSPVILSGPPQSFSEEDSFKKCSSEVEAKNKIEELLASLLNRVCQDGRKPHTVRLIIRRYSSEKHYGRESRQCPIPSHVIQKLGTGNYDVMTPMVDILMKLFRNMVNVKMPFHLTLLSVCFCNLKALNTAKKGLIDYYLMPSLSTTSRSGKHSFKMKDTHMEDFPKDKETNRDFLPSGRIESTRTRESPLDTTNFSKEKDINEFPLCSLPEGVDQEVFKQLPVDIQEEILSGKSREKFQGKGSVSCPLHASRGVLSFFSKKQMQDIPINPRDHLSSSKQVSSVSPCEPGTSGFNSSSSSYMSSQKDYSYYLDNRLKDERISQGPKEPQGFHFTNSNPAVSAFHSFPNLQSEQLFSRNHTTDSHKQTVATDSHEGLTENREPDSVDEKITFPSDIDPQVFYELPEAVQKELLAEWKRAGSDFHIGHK
# The campaign covered roughly 390,000 compounds. About 4,000 (1%) were called active. The inconclusive results got no clear call from the source; some entries with a clear call stand among them for comparison. The call rests on the fitted dose curve; in most records, active means well fitted inhibition curve with a large enough effect; inconclusive means small, poorly fitted or top-dose-only effect, or another doubt; inactive means no such curve, though single readings can be large or run the other way. Where the call is inconclusive, the potency comes from a doubtful curve fit.
# Target: DNA polymerase iota (Homo sapiens) (UniProt Q9UNA4)
# Assay: qHTS for Inhibitors of Polymerase Iota
# Conditions: Pol iota fluorescent replication assay, 10 min; series mostly up to 115 µM
# Outline: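 Pol iota at 10 nM preincubated 15 min with compounds at room temperature; reaction started with fluorescent substrate, 50 nM final. Fluorescence read kinetically at 0 and 10 min; buffer-only wells as negative control.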
# Potency means the concentration at half of the fitted maximal effect.
row,Structure (SMILES),Potency
1,CCCCn1nc(NC(=O)CC(C)C)c2cc3cc(OC)ccc3nc21,"inconclusive: 89.1 µM [inhibitor, single point]"
2,Cc1ccc(SCCNC(=O)CN(c2cccc(C)c2C)S(C)(=O)=O)cc1,inactive
3,CC(C)(C)c1cc2ncnc(N3CCCCC3)c2s1,inactive
4,COc1ccc2c(c1)c(C(=O)N/N=C/c1ccc(O)c(O)c1)c(C)n2C,"inconclusive: 14.1 µM [inhibitor, full curve, poor fit]"
5,COCCN(CCOC)Cc1c(O)ccc2c1O/C(=C\c1ccc(C)o1)C2=O,"inconclusive: 35.5 µM [inhibitor, single point]"
6,Cc1ccc(/C=N/NC(=O)C(C)Oc2cccc3ccccc23)o1 (stereo unspecified),"inconclusive: 89.1 µM [inhibitor, single point]"
7,CCC(C)NC(=O)Cn1c(=O)n(-c2cc(OC)cc(OC)c2)c(=O)c2ccccc21 (stereo unspecified),inactive
8,O=C(Nc1ccc(-n2nncc2-c2ccco2)cc1)c1ccc(F)cc1,"inconclusive: 50.1 µM [inhibitor, single point]"
9,CCOC(=O)c1ccc(NC(=O)CSCCC(=O)O)cc1,inactive
10,Cc1nc(-c2ccc(S(=O)(=O)Nc3cccc(S(N)(=O)=O)c3)s2)cs1,"inconclusive: 31.6 µM [inhibitor, partial curve, poor fit]"
11,CC(C)(C)c1cc(C(c2cccnc2)N2CCN(CCO)CC2)cc(C(C)(C)C)c1O (stereo unspecified),"inconclusive: 25.1 µM [inhibitor, single point]"
12,COc1cc(C2NC(=O)CCC2[N+](=O)[O-])cc(OC)c1OC (stereo unspecified),inactive
13,Cc1c(N(C)CS(=O)(=O)O)c(=O)n(-c2ccccc2)n1C,"inconclusive: 28.2 µM [inhibitor, single point]"
14,Cc1ccccc1-c1nc(CS(=O)(=O)CC(=O)NCCCN2CCN(C)CC2)c(C)o1,"inconclusive: 79.4 µM [inhibitor, single point]"
15,CCOc1ccc(N2C(=O)CC(N3CCN(c4ccccc4OC)CC3)C2=O)cc1 (stereo unspecified),"inconclusive: 100 µM [inhibitor, single point]"
16,CCn1c(SCC(=O)NCCc2ccccc2)nc2sc3c(c2c1=O)CCN(C)C3,"inconclusive: 39.8 µM [inhibitor, single point]"
17,COc1ccccc1/C=C/C(=O)NNC(=O)c1cc(C)oc1C,inactive
18,COc1ccc(-c2cc(C(F)(F)F)n3nc(C(=O)O)nc3n2)cc1,"inconclusive: 50.1 µM [inhibitor, partial curve]"
19,O=C(N/N=C/C=C/c1ccc([N+](=O)[O-])cc1)c1cccs1,"inconclusive: 22.4 µM [inhibitor, partial curve, poor fit]"
20,CCc1cc(CC)c(/C=N/NC(N)=O)c(CC)c1,"inconclusive: 25.1 µM [inhibitor, partial curve, poor fit]"
21,COc1ccc(/C=C2/SC(=O)N(CCNC(=O)CC(NC(C)=O)c3ccccc3)C2=O)cc1 (stereo unspecified),inactive
22,CCOC(=O)c1c(/N=C/c2cccc([N+](=O)[O-])c2O)sc(C)c1C,"inconclusive: 25.1 µM [inhibitor, partial curve, poor fit]"

# Three successive entries already listed, for reference:
row,Structure (SMILES),Potency
15,CCOc1ccc(N2C(=O)CC(N3CCN(c4ccccc4OC)CC3)C2=O)cc1 (stereo unspecified),"inconclusive: 100 µM [inhibitor, single point]"
16,CCn1c(SCC(=O)NCCc2ccccc2)nc2sc3c(c2c1=O)CCN(C)C3,"inconclusive: 39.8 µM [inhibitor, single point]"
17,COc1ccccc1/C=C/C(=O)NNC(=O)c1cc(C)oc1C,inactive

# The listing continues.

row,Structure (SMILES),Potency
1,Cc1nc(NC(=O)/C=C/c2ccco2)sc1C,"inconclusive: 112 µM [inhibitor, partial curve, poor fit]"
2,O=C(O)CC(=O)Nc1ccc(Oc2ccc(C(F)(F)F)cn2)c(Cl)c1,"inconclusive: 89.1 µM [inhibitor, single point]"
3,CCSC(=O)N1CCN(/[N+]([O-])=N/Oc2ccc([N+](=O)[O-])cc2[N+](=O)[O-])CC1,"inconclusive: 15.8 µM [inhibitor, full curve]"
4,O=C(Nc1cc(F)cc(F)c1)c1ccc(NCCc2ccccc2)c([N+](=O)[O-])c1,inactive
5,COC(=O)C(NNc1ccccc1C)(NC(=O)c1ccc(F)cc1)C(F)(F)F (stereo unspecified),"inconclusive: 11.2 µM [inhibitor, partial curve, poor fit]"
6,CC(=O)c1ccc(NC(=O)c2cnc(N3CCCC3)nc2C)cc1,inactive
7,O=C(O)C1=C(Nc2ccccc2)OCC1=O,"inconclusive: 22.4 µM [inhibitor, full curve, poor fit]"
8,COc1cc(N=c2ssnc2Cl)c(OC)cc1Cl,active: 20 µM
9,Cc1ccc(NC(=O)C2(S(=O)(=O)c3ccc(C)cc3)CC2)cc1,"inconclusive: 89.1 µM [inhibitor, single point]"
10,O=C(Nc1ccc(O)c2c(=O)cc(-c3ccccc3Cl)oc12)c1ccc(Cl)cc1Cl,"inconclusive: 89.1 µM [inhibitor, single point]"
11,Cc1ccc(NC(=O)N/C=C/c2ccco2)c(C)c1,"inconclusive: 17.8 µM [inhibitor, partial curve, poor fit]"
12,COc1ccc(OC)c(NC(=O)C(C)SCc2nc3sc(C)c(C)c3c(=O)[nH]2)c1 (stereo unspecified),"inconclusive: 11.2 µM [inhibitor, partial curve, poor fit]"
13,O=C(c1cccs1)c1ccc(-c2cccs2)s1,"inconclusive: 31.6 µM [inhibitor, single point]"
14,CN(C)C(CNC(=O)c1cccc(NS(=O)(=O)c2ccc(Br)cc2)c1)c1ccco1 (stereo unspecified),"inconclusive: 8.91 µM [inhibitor, partial curve, poor fit]"
15,O=C(O/N=C(/c1ccccc1)c1ccncc1)c1ccc(F)cc1,"inconclusive: 56.2 µM [inhibitor, partial curve, poor fit]"
16,CC(C)OC(=O)c1c2c(n3ccccc13)C(=O)c1ccccc1C2=O,inactive
17,Cc1cc(OC(C)C(=O)NCc2cccnc2)c2c(C)c(Cc3ccccc3)c(=O)oc2c1 (stereo unspecified),"inconclusive: 25.1 µM [inhibitor, partial curve, poor fit]"
18,CCCCOc1ccc(/C(O)=C2/C(=O)C(=O)N(CCCOC)C2c2ccncc2)cc1 (stereo unspecified),inactive
19,Cc1cc(O)c(C(C[N+](=O)[O-])c2ccc(Cl)cc2)c(=O)o1 (stereo unspecified),"inconclusive: 14.1 µM [inhibitor, full curve, poor fit]"
20,Cc1ccccc1-n1c(SCC(=O)c2ccccc2)nnc1-c1ccc(F)cc1,inactive
21,O=C(O)CCc1ccc(-c2ccc(Cl)cc2)n1Cc1ccco1,inactive
22,Cc1ccc(CNC(=O)CCCCCn2c(=O)c3sccc3n(CC(=O)C(C)(C)C)c2=O)cc1,inactive

row,Structure (SMILES),Potency
1,Cc1cc2c(nc1C)CCCN2C[C@@H](C)O/N=C1/[C@H]2CCn3c(=O)n(-c4ccccc4)c(=O)n3[C@H]2[C@H](O)[C@@H]2O[C@H]12,"inconclusive: 17.8 µM [inhibitor, single point]"
2,CCN(CC)CCNC(=O)c1cc2c(-c3ccc(Cl)cc3)nn(C)c2s1,"inconclusive: 31.6 µM [inhibitor, single point]"
3,COc1ccc(-n2cc3c(-c4cccc(Br)c4)nnc(C)c3n2)cc1,"inconclusive: 25.1 µM [inhibitor, partial curve, poor fit]"
4,COc1ccc(-c2cc(C(F)(F)F)c(C#N)c(SCC(=O)Nc3cccc(C)c3)n2)cc1,inactive
5,O=C(NCC(c1ccco1)S(=O)(=O)c1ccc(Cl)cc1)c1ccc(C(F)(F)F)cc1 (stereo unspecified),inactive
6,NS(=O)(=O)c1ccc(N2CCN(C(=O)C3COc4ccccc4O3)CC2)nc1 (stereo unspecified),"inconclusive: 79.4 µM [inhibitor, partial curve]"
7,O=[N+]([O-])c1ccc2nc(NS(=O)(=O)c3ccc(F)cc3)sc2c1,inactive
8,CCC(C)n1c(=O)c2sccc2n2c(CCCC(=O)Nc3ccc(F)cc3)nnc12 (stereo unspecified),inactive
9,CC(C)[C@H]1CN=C2N(C[C@H](C)NC(=O)CCC3CCCCC3)[C@H](Cc3ccc(O)cc3)CN21,"inconclusive: 17.8 µM [inhibitor, full curve]"
10,CCOC(=O)C(C)Sc1nc(-c2ccco2)cc(C(F)(F)F)c1C#N (stereo unspecified),"inconclusive: 39.8 µM [inhibitor, partial curve, poor fit]"
11,CCC(CO)Oc1cc(NC(=O)c2cccc(OC)c2)c2ncn(C(C)C)c2c1 (stereo unspecified),"inconclusive: 14.1 µM [inhibitor, full curve, poor fit]"
12,CC1CCN(S(=O)(=O)c2ccc3[nH]ccc3c2)CC1,inactive
13,COc1ccc(OC)c(Nc2nc(-c3ccc(O)c(O)c3)cs2)c1,"inconclusive: 20 µM [inhibitor, full curve]"
14,O=C(O)c1ccc(COc2ccc3ccccc3c2/C=C2/NC(=O)N(Cc3ccc(F)cc3)C2=O)cc1,inactive
15,O=C(CCCCCNC(=S)Nc1ccc(Cl)cc1)C[N+](=O)[O-],inactive
16,Cc1ccccc1CN1CCCC(C(=O)N2CCCCC2)C1 (stereo unspecified),"inconclusive: 44.7 µM [inhibitor, partial curve, poor fit]"
17,COc1ccc(NC(=O)c2cc(-c3cccc(OC)c3)on2)cc1,"inconclusive: 25.1 µM [inhibitor, partial curve, poor fit]"
18,N#C/C(=C\c1ccc2c(c1)OCO2)C(N)=S,"inconclusive: 31.6 µM [inhibitor, partial curve, poor fit]"
19,CS(=O)(=O)N1CCc2cc(-c3csc(NC(=O)Cc4ccccc4)n3)ccc21,"inconclusive: 35.5 µM [inhibitor, partial curve]"
20,O=C(Nc1ccc2oc(-c3cccnc3)nc2c1)c1ccc2c(c1)OCCO2,"inconclusive: 12.6 µM [inhibitor, full curve, poor fit]"
21,NC(=O)c1ncn([C@@H]2O[C@H](CNCc3cnc(N4CCOCC4)s3)[C@@H](O)[C@H]2O)n1,"inconclusive: 89.1 µM [inhibitor, partial curve, poor fit]"
22,CCOC(=O)c1sc(=S)n(-c2ccccc2)c1N,inactive
